Experimental data taken from article PMC10175675.
No constants are given. Whether binding was seen depends on the method and setting. For some of these results: Binding calls can cover weak binding; strength is not graded here. Sequences can lack the tags named with a protein. For some of these results: In cells and extracts the contact can be indirect.

Sequences of proteins named here, by UniProt entry; tags and fusion partners are left off.
UniProt A0A0P0INT0: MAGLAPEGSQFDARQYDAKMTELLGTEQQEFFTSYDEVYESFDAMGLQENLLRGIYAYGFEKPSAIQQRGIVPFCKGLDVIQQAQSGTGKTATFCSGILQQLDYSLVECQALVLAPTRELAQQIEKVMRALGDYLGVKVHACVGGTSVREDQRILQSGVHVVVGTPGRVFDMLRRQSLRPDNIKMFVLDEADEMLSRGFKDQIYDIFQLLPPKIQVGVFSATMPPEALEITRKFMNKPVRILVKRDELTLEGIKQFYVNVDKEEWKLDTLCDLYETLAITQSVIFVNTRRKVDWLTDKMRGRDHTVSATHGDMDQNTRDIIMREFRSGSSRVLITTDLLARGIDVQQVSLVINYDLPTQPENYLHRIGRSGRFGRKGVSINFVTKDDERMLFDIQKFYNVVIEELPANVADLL
UniProt P68559: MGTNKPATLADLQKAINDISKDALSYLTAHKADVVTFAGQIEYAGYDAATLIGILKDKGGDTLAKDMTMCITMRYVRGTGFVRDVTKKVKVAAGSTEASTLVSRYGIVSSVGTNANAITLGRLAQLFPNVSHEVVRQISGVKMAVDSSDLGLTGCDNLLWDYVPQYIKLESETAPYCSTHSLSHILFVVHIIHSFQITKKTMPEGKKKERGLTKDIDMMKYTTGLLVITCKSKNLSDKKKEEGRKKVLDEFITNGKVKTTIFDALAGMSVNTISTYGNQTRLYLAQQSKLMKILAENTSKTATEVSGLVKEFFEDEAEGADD

Columns and labels:
[1] = target: NbATG5-GFP (Nicotiana benthamiana ATG5) (Nicotiana benthamiana); experiment: co-IP; Co-IP of NbeIF4A-myc and NbATG5-GFP with increasing amounts of p2, and of NbATG5 and p2 with NbeIF4A expressed; total proteins extracted at 60 hpi
[2] = target: cYFP-NbATG5 (Nicotiana benthamiana ATG5) (Nicotiana benthamiana); experiment: split reporter; BiFC screen of RSV proteins against N. benthamiana ATGs in N. benthamiana cells; confocal microscopy
[3] = target: cYFP-NbATG5 (Nicotiana benthamiana ATG5) (Nicotiana benthamiana); experiment: split reporter; BiFC of NbeIF4A and NbATG5 with RFP or p2-RFP co-expressed; laser confocal microscopy at 60 hpi
[4] = target: NbATG3 (Nicotiana benthamiana ATG3), BiFC fusion (Nicotiana benthamiana); experiment: split reporter; BiFC screen of RSV proteins against N. benthamiana ATGs in N. benthamiana cells; confocal microscopy
[5] = target: NbATG6 (Nicotiana benthamiana ATG6), BiFC fusion (Nicotiana benthamiana); experiment: as above
[6] = target: NbATG7 (Nicotiana benthamiana ATG7), BiFC fusion (Nicotiana benthamiana); experiment: as above
[7] = target: NbATG8 (Nicotiana benthamiana ATG8), BiFC fusion (Nicotiana benthamiana); experiment: as above
[8] = target: BK-NbATG5 (pGBK-NbATG5; Nicotiana benthamiana ATG5) (Nicotiana benthamiana); experiment: two-hybrid; yeast two hybrid; AD-p2 and BK-NbATG5; SD medium (-Ade/-His/-Leu/-Trp) with X-gal, serial 10-fold dilutions
[9] = target: nLUC-NbATG5 (Nicotiana benthamiana ATG5) (Nicotiana benthamiana); experiment: split reporter; firefly luciferase complementation imaging (LCI) in N. benthamiana leaves; detached at 72 hpi, sprayed with 1 mM luciferin; CCD imaging
[10] = target: NbATG5-GFP (Nicotiana benthamiana ATG5) (Nicotiana benthamiana); experiment: co-IP; proteins transiently expressed using agrobacterium in leaf tissues; total proteins immunoprecipitated at 60 hpi using anti-GFP beads; immunoblot with anti-GFP and anti-myc

In the case of “NbeIF4A-myc (Nicotiana benthamiana eIF4A) (from UniProt A0A0P0INT0 1-413)”, the binding [1] is reported as “binds”.

“nYFP-CP (rice stripe virus coat protein) (from UniProt P68559 1-322)” was tested, and the binding [2] was “no binding”.

“nYFP-NbeIF4A (Nicotiana benthamiana eIF4A) (from UniProt A0A0P0INT0 1-413)” was tested, and the binding [3] was “binds”.

B1: nYFP-p2 (rice stripe virus p2 protein) (protein, UniProt Q89717 1-199)
chain: MALLLFNDHYYGFLHKYKRHTGSYDNLFNLRCSKEDHYLNSLDAIWLMGCCEEFTDPALRAHALAIATESNIGLVNNNAVISDERLKCWLCKKPSHQQTEHLKLILLPNLVNGFQFATESYHICLKDHSGDDPTQYLSEFSFPTGLRAYYKPHQKMEHKHIVVTNGIPISKNFNEIALPDPSPSDDYVLVGAHECPILM
In the case of B1, the binding [4] is reported as “no binding”, the binding [5] is reported as “no binding” and the binding [6] is reported as “no binding”. For the same molecule, the binding [7] was “no binding” and the binding [2] was “binds”.

B2: AD-p2 (pGAD-p2; rice stripe virus p2 protein) (protein, UniProt Q89717 1-199)
chain: MALLLFNDHYYGFLHKYKRHTGSYDNLFNLRCSKEDHYLNSLDAIWLMGCCEEFTDPALRAHALAIATESNIGLVNNNAVISDERLKCWLCKKPSHQQTEHLKLILLPNLVNGFQFATESYHICLKDHSGDDPTQYLSEFSFPTGLRAYYKPHQKMEHKHIVVTNGIPISKNFNEIALPDPSPSDDYVLVGAHECPILM
In the case of B2, the binding [8] is reported as “binds”.

B3: cLUC-p2 (rice stripe virus p2 protein) (protein, UniProt Q89717 1-199)
chain: MALLLFNDHYYGFLHKYKRHTGSYDNLFNLRCSKEDHYLNSLDAIWLMGCCEEFTDPALRAHALAIATESNIGLVNNNAVISDERLKCWLCKKPSHQQTEHLKLILLPNLVNGFQFATESYHICLKDHSGDDPTQYLSEFSFPTGLRAYYKPHQKMEHKHIVVTNGIPISKNFNEIALPDPSPSDDYVLVGAHECPILM
For B3, the binding [9] was “binds”.

B4: p2-myc (rice stripe virus p2 protein) (protein, UniProt Q89717 1-199)
chain: MALLLFNDHYYGFLHKYKRHTGSYDNLFNLRCSKEDHYLNSLDAIWLMGCCEEFTDPALRAHALAIATESNIGLVNNNAVISDERLKCWLCKKPSHQQTEHLKLILLPNLVNGFQFATESYHICLKDHSGDDPTQYLSEFSFPTGLRAYYKPHQKMEHKHIVVTNGIPISKNFNEIALPDPSPSDDYVLVGAHECPILM
With B4 the binding [10] was “binds”.

B5: RSV p2 protein (construct of the Co-IP of Figure 5E,F, tag not stated) (protein, UniProt Q89717 1-199)
chain: MALLLFNDHYYGFLHKYKRHTGSYDNLFNLRCSKEDHYLNSLDAIWLMGCCEEFTDPALRAHALAIATESNIGLVNNNAVISDERLKCWLCKKPSHQQTEHLKLILLPNLVNGFQFATESYHICLKDHSGDDPTQYLSEFSFPTGLRAYYKPHQKMEHKHIVVTNGIPISKNFNEIALPDPSPSDDYVLVGAHECPILM
B5 was tested, and the binding [1] was “binds”.

B6: p2-RFP (rice stripe virus p2 protein fused to red fluorescence protein) (protein, UniProt Q89717 1-199)
chain: MALLLFNDHYYGFLHKYKRHTGSYDNLFNLRCSKEDHYLNSLDAIWLMGCCEEFTDPALRAHALAIATESNIGLVNNNAVISDERLKCWLCKKPSHQQTEHLKLILLPNLVNGFQFATESYHICLKDHSGDDPTQYLSEFSFPTGLRAYYKPHQKMEHKHIVVTNGIPISKNFNEIALPDPSPSDDYVLVGAHECPILM
In the case of B6, the binding [3] is reported as “binds”.
